Assay results from the supplement of paper PMC3334620.
The full ranking holds about 33,000 sequences; the median of “E-score (-0.5 to 0.5)” is about -0.015, and the highest 2% start at about 0.3. The list shows a part of the results.

target: T1, Abf1 (UniProt P14164); experiment: PBM E-score (8-mer binding enrichment) (E-score (-0.5 to 0.5)); higher = stronger / more preferred TF binding; conditions: protein concentration: 200 nM; construct: GST-full length
T1 sequence: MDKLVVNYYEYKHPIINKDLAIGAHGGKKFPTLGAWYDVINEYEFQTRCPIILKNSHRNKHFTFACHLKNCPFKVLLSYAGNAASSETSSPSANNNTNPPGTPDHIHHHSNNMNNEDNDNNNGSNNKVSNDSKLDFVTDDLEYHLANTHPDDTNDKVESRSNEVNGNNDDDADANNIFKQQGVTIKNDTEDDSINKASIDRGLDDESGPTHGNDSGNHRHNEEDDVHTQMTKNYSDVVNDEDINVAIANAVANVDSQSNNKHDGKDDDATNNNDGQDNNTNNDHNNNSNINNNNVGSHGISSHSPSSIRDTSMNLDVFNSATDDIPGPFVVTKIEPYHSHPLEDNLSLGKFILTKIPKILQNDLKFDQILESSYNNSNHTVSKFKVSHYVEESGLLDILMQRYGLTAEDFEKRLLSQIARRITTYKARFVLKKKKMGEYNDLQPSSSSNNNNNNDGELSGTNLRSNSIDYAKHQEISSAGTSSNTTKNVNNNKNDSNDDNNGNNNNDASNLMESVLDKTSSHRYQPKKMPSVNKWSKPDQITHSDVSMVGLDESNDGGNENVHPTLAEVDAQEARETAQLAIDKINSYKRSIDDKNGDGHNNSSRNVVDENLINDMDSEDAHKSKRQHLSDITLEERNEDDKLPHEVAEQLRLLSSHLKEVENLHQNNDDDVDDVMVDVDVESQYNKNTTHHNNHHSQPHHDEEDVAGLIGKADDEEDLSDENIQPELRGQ
Experimental: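 Universal 'all 10-mer' protein binding microarrays (Agilent AMADID 015681) probed with GST-tagged S. cerevisiae TFs (full-length or DBD) made by in vitro transcription/translation (PURExpress), about 100-200 nM. Bound TF was detected with fluorescent anti-GST. Each ungapped 8-mer (which stands for itself and its reverse complement) is scored by the PBM enrichment score (E-score), a modified Wilcoxon-Mann-Whitney statistic from -0.5 to +0.5, computed with the Universal PBM Analysis Suite. Scale: above 0.35 generally sequence-specific binding.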

Sequence	PBM E-score
CTACGGCC	0.178
CGGGGCAC	-0.115
CCGGAATC	-0.0839
CCGCAACC	-0.244
AGAGGGAA	-0.12
AATCGTTG	0.162
CGGCAGAG	-0.193
ACACATTC	0.0901
CACTGAGA	-0.104
AAATGAGA	0.101
AAGTCATG	0.234
ACCTGAAG	-0.11
GCGGACGA	0.276
AGCGCGTA	0.1
AAATAGGT	-0.0416
AGTAAACT	-0.0386
AGAGCATG	-0.111
AATGTTCT	-0.0127
ATCCCGAA	0.0211
TAAATTGA	0.113
GTAGTCTA	0.0368
CTACTAAG	-0.156

Sequence	PBM E-score
TGCATACA	0.0795
CGGTACTA	-0.0993
CGAAAACA	0.0918
CAGGCTAA	-0.16
GTTACCTA	0.0964
AACCGGTC	-0.154
CTTGAAAA	-0.0298
AATTTCCC	-0.139
ATCCCCTA	-0.123
AGACCGGA	-0.159
ATTTCCGC	-0.0104
CGAGAGCA	-0.0239
AGATCCGA	0.0833
CGCGCCCG	0.0839
ACGCTCAA	-0.041
AGCACAAG	-0.103
CTGCCACA	-0.0763
AAGCCTGT	-0.153
CGACTGTC	-0.132
CGCCGCAC	-0.0587
CGCAAATC	-0.176
GCGAGCAA	-0.0293

Sequence	PBM E-score
CTCTAAAC	-0.0603
CTGGCCAG	-0.0971
AACTCTAA	-0.0763
GGATGATA	0.31
CTTTTAGC	-0.0691
TCACCAAA	0.162
ACGAGATG	0.051
GCGTAAAA	0.103
ATGCGATG	-0.0297
GCTCTCTA	0.0364
CGTTGAAA	0.201
CCACTGAA	-0.0969
CATTAGCC	-0.124
AGCCGACC	-0.0289
TATCCAGA	-0.0622
CCGGGCCG	-0.129
CACCTTAC	-0.182
AGGCTCTG	-0.089
TAGAAGGA	-0.228
AACAGAAC	0.0812
TCAACTGA	-0.024
AAATGGTG	-0.0227

Given bar-delimited: entries from further up.
Sequence | PBM E-score
ACGCTCAA | -0.041
AGCACAAG | -0.103
CTGCCACA | -0.0763
AAGCCTGT | -0.153
CGACTGTC | -0.132
CGCCGCAC | -0.0587
CGCAAATC | -0.176
GCGAGCAA | -0.0293
CTCTAAAC | -0.0603
CTGGCCAG | -0.0971
AACTCTAA | -0.0763
GGATGATA | 0.31
CTTTTAGC | -0.0691
TCACCAAA | 0.162
ACGAGATG | 0.051
GCGTAAAA | 0.103
ATGCGATG | -0.0297
GCTCTCTA | 0.0364
CGTTGAAA | 0.201
CCACTGAA | -0.0969
CATTAGCC | -0.124

Further records follow:

Sequence	PBM E-score
AGGATAGC	0.181
ACCGTCTG	-0.00329
ACACATGA	0.0169
ATTGATTC	0.147
ATAGCGTG	-0.074
CGAGATAA	0.228
ATAGGTGC	-0.0257
TCGTAGAA	0.393
CATTACAG	-0.0265
AGGCATAG	-0.121
CCCCGGCA	-0.16
AGCACCTA	-0.101
CATGACGG	0.0231
CGGGTTAA	-0.0578
GGGGTGTA	-0.203
CGCCATCA	-0.165
ATACAGTC	-0.0959
AAAAGGGG	-0.182
GGAAATAA	0.115
ATCTTCGC	0.0673
ACTGTATC	0.0858
AACGCACC	-0.233

Sequence	PBM E-score
ATGGAATG	-0.0802
AAGAACCT	-0.0891
CCCGAGCG	-0.0814
GATATAAA	0.22
ACGGCAAC	0.213
GATTATGC	0.0905
ACCCTTGC	-0.18
ACACCACA	0.123
CCTAATGA	-0.00705
ACTATTGG	-0.0166
CTATGTCA	0.31
AGGCTTTC	-0.0982
ACAACTTG	-0.0904
CGTTGAGA	0.176
AGAGTGAC	0.288
GTAATTAA	0.0449
GGTATCTA	0.0789
CTAACGTA	0.225
TCATATGA	0.101
ACGCTCTC	-0.025
AGAATTAA	-0.174
AATGCCAT	-0.0524
